# Results of single-concentration screens

The chains behind the UniProt entries cited, without tags or fusion partners. Residues count along the entry.
UniProt I6X8D2, whole entry: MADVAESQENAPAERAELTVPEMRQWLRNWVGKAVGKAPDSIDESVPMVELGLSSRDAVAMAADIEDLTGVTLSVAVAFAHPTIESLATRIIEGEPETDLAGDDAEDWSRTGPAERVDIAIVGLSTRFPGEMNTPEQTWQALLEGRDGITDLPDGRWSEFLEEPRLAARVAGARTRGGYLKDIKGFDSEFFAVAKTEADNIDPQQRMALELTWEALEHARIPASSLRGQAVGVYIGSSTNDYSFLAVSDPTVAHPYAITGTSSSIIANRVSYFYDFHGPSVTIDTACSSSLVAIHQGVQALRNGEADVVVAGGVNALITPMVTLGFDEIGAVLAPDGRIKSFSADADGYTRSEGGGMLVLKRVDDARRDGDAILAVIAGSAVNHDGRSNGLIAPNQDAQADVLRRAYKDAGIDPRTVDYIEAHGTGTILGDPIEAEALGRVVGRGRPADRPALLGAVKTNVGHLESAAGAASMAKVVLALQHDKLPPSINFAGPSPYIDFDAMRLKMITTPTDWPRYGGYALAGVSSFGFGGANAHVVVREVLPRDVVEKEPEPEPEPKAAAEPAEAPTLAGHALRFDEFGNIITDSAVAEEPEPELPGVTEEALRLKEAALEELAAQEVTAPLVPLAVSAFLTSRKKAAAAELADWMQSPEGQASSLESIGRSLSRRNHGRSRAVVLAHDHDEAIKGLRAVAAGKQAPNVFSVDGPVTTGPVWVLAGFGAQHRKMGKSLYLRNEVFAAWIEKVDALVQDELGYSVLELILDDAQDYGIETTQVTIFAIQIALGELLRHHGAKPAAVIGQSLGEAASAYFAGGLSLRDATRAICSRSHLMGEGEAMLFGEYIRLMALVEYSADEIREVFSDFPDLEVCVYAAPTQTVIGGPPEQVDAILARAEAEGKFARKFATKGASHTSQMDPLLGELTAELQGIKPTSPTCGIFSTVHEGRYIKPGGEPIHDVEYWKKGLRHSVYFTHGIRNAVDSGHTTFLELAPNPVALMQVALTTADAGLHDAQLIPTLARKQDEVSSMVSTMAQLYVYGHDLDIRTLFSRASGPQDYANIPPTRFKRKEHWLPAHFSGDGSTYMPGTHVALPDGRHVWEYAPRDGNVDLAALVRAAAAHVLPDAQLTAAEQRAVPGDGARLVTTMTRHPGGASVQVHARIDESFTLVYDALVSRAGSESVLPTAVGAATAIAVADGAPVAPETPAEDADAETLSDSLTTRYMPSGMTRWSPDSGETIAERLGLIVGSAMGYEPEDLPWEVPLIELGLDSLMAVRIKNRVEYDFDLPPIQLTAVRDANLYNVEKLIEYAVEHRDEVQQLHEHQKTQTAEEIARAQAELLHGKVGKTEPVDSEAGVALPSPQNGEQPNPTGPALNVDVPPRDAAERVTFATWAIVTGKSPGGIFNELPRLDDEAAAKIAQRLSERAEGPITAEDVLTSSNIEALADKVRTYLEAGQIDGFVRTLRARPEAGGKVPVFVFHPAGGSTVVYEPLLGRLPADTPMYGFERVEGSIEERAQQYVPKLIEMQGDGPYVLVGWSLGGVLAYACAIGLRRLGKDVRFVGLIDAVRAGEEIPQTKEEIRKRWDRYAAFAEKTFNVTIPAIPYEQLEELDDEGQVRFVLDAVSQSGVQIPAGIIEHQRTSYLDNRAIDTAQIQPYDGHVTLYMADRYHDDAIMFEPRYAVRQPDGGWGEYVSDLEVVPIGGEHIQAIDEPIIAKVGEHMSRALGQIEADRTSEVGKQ
UniProt A4I591, 1-473: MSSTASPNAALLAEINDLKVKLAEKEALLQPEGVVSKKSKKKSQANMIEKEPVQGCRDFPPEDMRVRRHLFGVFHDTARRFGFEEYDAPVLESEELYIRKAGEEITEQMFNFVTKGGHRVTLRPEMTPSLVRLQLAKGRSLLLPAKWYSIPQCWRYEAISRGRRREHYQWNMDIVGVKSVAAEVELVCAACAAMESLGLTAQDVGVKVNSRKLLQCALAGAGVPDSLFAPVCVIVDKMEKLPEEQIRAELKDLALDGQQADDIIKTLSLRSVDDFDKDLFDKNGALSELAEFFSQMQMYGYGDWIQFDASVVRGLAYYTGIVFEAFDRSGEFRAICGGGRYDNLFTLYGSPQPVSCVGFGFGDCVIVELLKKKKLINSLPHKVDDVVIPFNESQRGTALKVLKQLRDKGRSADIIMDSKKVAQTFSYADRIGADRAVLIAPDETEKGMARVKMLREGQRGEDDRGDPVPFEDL
UniProt P9WPC5, whole entry: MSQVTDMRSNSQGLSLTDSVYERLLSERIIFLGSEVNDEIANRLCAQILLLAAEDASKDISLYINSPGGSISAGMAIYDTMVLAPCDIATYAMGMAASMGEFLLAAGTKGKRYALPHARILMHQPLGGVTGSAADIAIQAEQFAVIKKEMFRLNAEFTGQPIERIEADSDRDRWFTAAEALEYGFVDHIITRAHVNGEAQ
UniProt P9WPC3, whole entry partner: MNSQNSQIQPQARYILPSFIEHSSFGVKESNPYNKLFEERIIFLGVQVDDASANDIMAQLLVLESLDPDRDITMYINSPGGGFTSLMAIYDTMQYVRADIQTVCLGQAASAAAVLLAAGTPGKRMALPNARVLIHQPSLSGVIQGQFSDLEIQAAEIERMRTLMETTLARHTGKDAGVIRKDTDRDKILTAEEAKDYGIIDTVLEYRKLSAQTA
UniProt P9WNZ1, whole entry: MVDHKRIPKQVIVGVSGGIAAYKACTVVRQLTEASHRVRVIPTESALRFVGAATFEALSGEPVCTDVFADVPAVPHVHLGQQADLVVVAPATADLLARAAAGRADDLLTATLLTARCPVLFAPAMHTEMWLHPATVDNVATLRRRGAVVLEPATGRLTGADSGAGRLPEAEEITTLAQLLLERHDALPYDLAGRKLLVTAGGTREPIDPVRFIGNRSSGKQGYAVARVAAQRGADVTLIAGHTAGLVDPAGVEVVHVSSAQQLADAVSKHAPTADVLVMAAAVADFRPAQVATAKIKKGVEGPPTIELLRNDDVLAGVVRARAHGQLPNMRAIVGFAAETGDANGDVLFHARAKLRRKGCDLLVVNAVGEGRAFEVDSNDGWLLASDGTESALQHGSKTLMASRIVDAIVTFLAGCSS

Data taken from ChEMBL document CHEMBL3988442, “University of Dundee, Small-Polar-MMV Screening Library” (2021).

Pks13 thioesterase: 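Polyketide synthase Pks13, Mycobacterium tuberculosis (UniProt I6X8D2). Enzyme assay of the thioesterase domain of polyketide synthase 13; the read-out is not stated. Tested at 30 µM. The record gives no direction; the compounds picked for IC50 retests had high values, so higher reads as stronger inhibition. Of about 67,000 compounds tested this way, about 300 (0.46%) reached 50% or more in at least one test.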
LiHisRS: 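Enzyme assay of histidyl-tRNA synthetase; the read-out is not stated. Target: Histidine-tRNA ligase, Leishmania infantum (UniProt A4I591). Tested at 30 µM. Direction is inferred from retests: higher values go with stronger inhibition. The assay is labelled LdHisRS but filed under L. infantum. Size under these conditions: about 69,000 compounds, about 410 of them at 50% or above in at least one test.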
Leishmania in macrophages: 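Cell assay of Leishmania donovani living inside macrophages; the read-out is not stated. Concentration: 30 µM. Higher reads as stronger inhibition (inferred: compounds with an IC50 in retests scored well above the rest). Of about 69,000 compounds tested this way, about 1,000 (1.5%) reached 50% or more in at least one test.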
ClpP1P2: 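Protease assay of ClpP1P2, read by the AMC dye that it sets free. Target: ClpP1P2, Mycobacterium tuberculosis (UniProt P9WPC5 and UniProt P9WPC3). Concentration: 50 µM. Higher reads as stronger inhibition, judged from the few compounds that gave an IC50. Most other retested compounds had strongly negative values. Of about 69,000 compounds tested this way, about 10 (0.015%) reached 50% or more in at least one test.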
Toxoplasma: 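Assay of Toxoplasma gondii numbers, read through their beta-galactosidase reporter with a colour substrate. Compounds at 10 µM. Higher reads as fewer parasites (inferred from which compounds were picked for retests). Size under these conditions: about 67,000 compounds, about 260 of them at 50% or above in at least one test.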
CoaBC: 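Coenzyme A biosynthesis protein CoaBC, Mycobacterium tuberculosis (UniProt P9WNZ1). Enzyme assay of CoaBC with a phosphate dye (Biomol Green) read at 650 nm. Compounds at 30 µM. Higher reads as stronger inhibition, judged from the few compounds that gave an IC50. Most strong results did not repeat in a second test. Of about 67,000 compounds tested this way, about 40 (0.06%) reached 50% or more in at least one test.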

Results are given as percent effect.
The record does not define 0% and 100%; most values in the screen are far below 50% and negative numbers occur (in some assays of this library far below -100).
Compounds were drawn at random from those tested, without regard to their results.
Two or more numbers in one place are separate tests of the same structure; such repeats can differ widely.
A dash means the value is not listed here; it may have been measured.

compound	Pks13 thioesterase	LiHisRS	Leishmania in macrophages	ClpP1P2	Toxoplasma	CoaBC
CCOCC(O)CN1CCN(C(=O)c2cc(Cl)ccc2F)CC1 (stereo not shown)	-9.942	7.692	23.31	-5.787	-3.316	-0.2389
O=C(Cc1ccc(O)c(F)c1)N1CCN(CC2CC2)[C@@H]2CS(=O)(=O)C[C@@H]21	-26.98	21.21	-	1.247	-	4.536
COCCN(CCOC)C(=O)c1cn(C(C)(C)C)c2ncccc12	12.35	15.84	28.04	-6.475	17.5	1.456
CC[C@H](N)C(=O)Nc1nn(CC(F)(F)F)c2cc(OC(C)C)ccc12	-23.02	18.18	38.28	-4.374	-7.094	0.2554
CC(CN1CCOCC1)NC(=O)NCc1cccs1 (stereo not shown)	-1.872	2.679	0.6209	0.9173	3.953	-1.24
O=C(c1cnccn1)N1CCC(Oc2ncccc2Cl)CC1	-8.664	-6.957	-7.065 and -5.343	-2.617	9.524	0.2114
CN1CCN(c2ncnc3c2c(C(=O)NC2CC2)c2ccccn23)CC1	38.78	7.843	1.439	-785.8	-19.67	0.6435
CCN(CC)CC(=O)NCCc1csc(N2CCCC2)n1	-12.52	-0.9709	18.02	-21	-1.211	-5.357
CCc1cnc(N)nc1NCCCn1cc(Cl)cn1	-35.87	6.667	-19.49	6.352	5.038	-41.76
CC(C)NC(=O)Nc1ccc(CNCc2cccc(OC(F)F)c2)cc1	0.8848	-15.62	26.96	9.669	-0.3337	2.635
Cc1ccc(C(=O)N2C[C@@H]3OCCN(C(C)C)[C@@H]3C2)cn1	2.342	11.93	-	-1.949	-	-0.6085
[H][C@@]12C[C@H](C)O[C@]1([H])CCN(C(=O)c1cccc3c1OCCO3)C2	-	-	-11.14	-	1.436	-
CN(Cc1cccnc1)[C@@H]1CN(C(=O)c2ccno2)[C@@H]2CCCO[C@H]12	-11.31	11.82	-	-11.79	-	2.716
COCC1CN(Cc2ccncc2)Cc2nnn(CC3CC3)c21.O=C(O)C(F)(F)F.O=C(O)C(F)(F)F (stereo not shown)	-	-	8.839	-	0.2369	-
CC(=O)N1CCCC(c2ccnc(Nc3cnccn3)c2)C1 (stereo not shown)	24.84	18.31	-6.303	-12.51	6.819	4.932
FC(F)(F)c1ccnc(N2CCC(c3nccn3CC3CC3)CC2)n1	1.935	13.33	-4.568	-3.532	11.11	-4.551
CC(=O)N1CCCC1C(=O)NCCOc1cccc(F)c1 (stereo not shown)	-36.81	9.615	22.8	-9.762	8.621	3.345
CCn1cnnc1CNC(=O)NC(c1ccc(OC)cc1)C1CC1 (stereo not shown)	-9.494	3.333	8.308	3.832	-7.015	-0.6424
CC(NC(=O)C1CCN(C(=O)C2CC2)CC1)c1nncn1C(C)C (stereo not shown)	-1.544	6.452	27.99	-13.95	-10.66	11.32
Cl.O=C(c1ccccc1F)N1CC2(CCNCC2)c2cc(Cl)ccc21	-	-	46.46	-	-35.61	-
OC1(CNCCc2csc(-c3cccnc3)n2)CCNC1 (stereo not shown)	-13.82	18.99	17.55	-3.12	2.411	2.662
Cc1ccc(C(=O)N2CC[C@@H]3CN(C4CCOCC4)CCO[C@@H]3C2)o1	-	11.88	-	2.753	-	5.322
Cn1nc(C2CCCN(Cc3cccc(F)c3)C2)c2nccnc21 (stereo not shown)	-42.85	25	-	2.076	-	-2.778
Cc1cc(NCc2cccnc2)n2nc(C)cc2n1	-2.466	19.05	5.18	6.668	-7.047	-5.702
CCOc1ncccc1NC(=O)N1CCC(n2cncn2)CC1	-18.45	3.797	9.476	-16.49	12.55	3.422
O=C(O)C(F)(F)F.O=C(O)C(F)(F)F.[H][C@@]12CCN(Cc3ccsc3)C[C@]1([H])[C@@H](CNc1ncccn1)OC2	-	-	3.075	-	-4.565	-
CCNc1c(NC(=O)NC(C)C)c(=O)oc2ccccc12	-8.26	3.226	25.59	-7.242	-0.4438	-2.589
CS(=O)(=O)c1nnc(NC(=O)CCc2cccc(Cl)c2)[nH]1	9.25	7.895	-20.15	6.047	1.551	-3.34
CCOc1cccc2c1OCC(C(=O)NS(=O)(=O)c1c(C)noc1C)=C2	2.842	10.53	25.62	-7.002	19.86	-2.857
CCC(CC)C(O)CNC(=O)Cc1c[nH]c2ncccc12 (stereo not shown)	-10.82	19.54	4.947	1.304	5.7	18.79
CCn1cc(C(=O)n2nc(C)cc2C)c(S(=O)(=O)N2CCCCC2)n1	-14.9	32.35	14.54	-0.2291	-3.349	0
O=C1[C@H]2CN(CC3CCOCC3)C[C@H]2CN1c1ccsc1	-7.589	8	-	-5.625	-	3.074
CN(C1CCCCC1)S(=O)(=O)NCC1Cc2ccccc2O1 (stereo not shown)	-39.48	11.4	-20.13	6.093	-0.918	-4.968
CS(=O)(=O)N1C[C@H](C(=O)Nc2cnccn2)C[C@H]2OCC[C@H]21	-20.1	10.34	-	12.11	-	-
O=C(NCCNc1ccccn1)NC1CCOC2(CCCCC2)C1 (stereo not shown)	7.145	9.091	7.796	-15.42	6.497	-0.6329
NC(=O)c1ccc(N2CCCCC2)c(NC(=O)c2cc(Br)ccc2Cl)c1	16.93	80.65	19.23	2.788	-3.932	3.045
O=C(c1ccc(C2CCCO2)s1)N1CCS(=O)(=O)CC1 (stereo not shown)	-5.368	19.23	6.212	-6.838	4.039	9.595
Cl.[H][C@@]12CNC[C@]1([H])CN(C(=O)C1CCCCC1)C2	-	-	8.624	-	12.68	-

For reference, 5 entries once more:

CC(NC(=O)C1CCN(C(=O)C2CC2)CC1)c1nncn1C(C)C (stereo not shown) read Pks13 thioesterase: -1.544%; LiHisRS: 6.452%; Leishmania in macrophages: 27.99%; ClpP1P2: -13.95%; Toxoplasma: -10.66%; CoaBC: 11.32%.
CS(=O)(=O)N1C[C@H](C(=O)Nc2cnccn2)C[C@H]2OCC[C@H]21 read Pks13 thioesterase: -20.1%; LiHisRS: 10.34%; ClpP1P2: 12.11%.
Cl.[H][C@@]12CNC[C@]1([H])CN(C(=O)C1CCCCC1)C2 read Leishmania in macrophages: 8.624%; Toxoplasma: 12.68%.
O=C1[C@H]2CN(CC3CCOCC3)C[C@H]2CN1c1ccsc1 read Pks13 thioesterase: -7.589%; LiHisRS: 8%; ClpP1P2: -5.625%; CoaBC: 3.074%.
CN1CCN(c2ncnc3c2c(C(=O)NC2CC2)c2ccccn23)CC1 read Pks13 thioesterase: 38.78%; LiHisRS: 7.843%; Leishmania in macrophages: 1.439%; ClpP1P2: -785.8%; Toxoplasma: -19.67%; CoaBC: 0.6435%.